Data reported in patent publication US20080249137A1, “PPAR active compounds” (priority 2005, published 2008).
pEC50: −log10 of the molar value. Some entries share one result that the patent states for a list of compounds.

These molecules were tested on T1, at least one of PPARα, PPARγ and PPARδ (assay: PPAR activity assays: biochemical assay of Example 22 or cell based assay of Example 23, result pooled). Conditions: either biochemical assay of Example 22 or cell based assay of Example 23; isoform not specified.
T1 construct: P332. pET28 PPARA E199-Y468-X / P333. pET28 PPARG E205-Y475-X / P1057. pET BAM6 PPARD G165-Y441-X; fused on or other part: N-terminal His tag on the LBD in the biochemical assay
Parameters: species or system human

pEC50, ≥ 6.00:
CCCOc1ccc(Oc2ccc(S(=O)(=O)c3cc(CC(=O)O)cc(OCC4CC4)c3)cc2)cc1 [Compound P-0271, {3-Cyclopropylmethoxy-5-[4-(4-propoxy-phenoxy)-benzenesulfonyl]-phenyl}-acetic acid]
COCCOc1cc(CC(=O)O)cc(S(=O)(=O)c2cccc(-c3ccc(OC(F)(F)F)cc3)c2)c1 [Compound P-0200, [3-(2-Methoxy-ethoxy)-5-(4′-trifluoromethoxy-biphenyl-3-sulfonyl)-phenyl]-acetic acid]
COCCOc1cc(CC(=O)O)cc(S(=O)(=O)c2cccc(-c3cccc(C(F)(F)F)c3)c2)c1 [Compound P-0201, [3-(2-Methoxy-ethoxy)-5-(3′-trifluoromethyl-biphenyl-3-sulfonyl)-phenyl]-acetic acid]
CCCOc1cc(CC(=O)O)cc(S(=O)(=O)c2cccc(-c3ccccc3OC)c2)c1 [Compound P-0106, [3-(2′-Methoxy-biphenyl-3-sulfonyl)-5-propoxy-phenyl]-acetic acid]
CCOc1cc(CCC(=O)O)cc(S(=O)(=O)c2ccc(OC)cc2)c1 [Compound P-0156, 3-[3-Ethoxy-5-(4-methoxy-benzenesulfonyl)-phenyl]-propionic acid]
CCCCc1ccc(S(=O)(=O)c2cc(CC(=O)O)cc(OCCC)c2)cc1 [Compound P-0073, [3-(4-Butyl-benzenesulfonyl)-5-propoxy-phenyl]-acetic acid]
CCCCOc1cc(CCC(=O)O)cc(S(=O)(=O)c2ccc(OC)cc2)c1 [Compound P-0152, 3-[3-Butoxy-5-(4-methoxy-benzenesulfonyl)-phenyl]-propionic acid]
COCCOc1cc(CC(=O)O)cc(OCc2sc(-c3ccc(C(F)(F)F)cc3)nc2C)c1 [Compound P-0021, {3-(2-Methoxy-ethoxy)-5-[4-methyl-2-(4-trifluoromethyl-phenyl)-thiazol-5-ylmethoxy]-phenyl}-acetic acid]
CCCCOc1cc(CC(=O)O)cc(OCc2ccc(Oc3ccc(C(F)(F)F)cc3)cc2)c1 [Compound P-0017, {3-Butoxy-5-[4-(4-trifluoromethyl-phenoxy)-benzyloxy]-phenyl}-acetic acid]
